# PubChem BioAssay AID2685 (National Center for Advancing Translational Sciences (NCATS), 2010)
# In all, about 320,000 compounds went through this assay and about 2,100 (0.66%) were called active. Calls follow the shape of the dose curve; as a rule, active = well fitted inhibition curve with a large enough effect in the signal ratio, with a control signal flat (not every such curve was filed as active); inconclusive = small, poorly fitted or top-dose-only effect, or effect the other way, or a change in a side signal; inactive = flat fitted curve, though single readings scatter; the % refers to the signal ratio. Inconclusive means that the source gave no clear call. Where the call is inconclusive, the potency comes from a doubtful curve fit.
# Experiment: qHTS Assay for Lipid Storage Modulators in Drosophila S3 Cells
# Settings: BODIPY lipid droplet fluorescence, 18-24 h, cells fed with added oleic acid; series mostly up to 46.1 µM
# Source text: NIH Molecular Libraries Probe Production Centers Network [MLPCN] NIH Chemical Genomics Center [NCGC] MLPCN Grant: 1 R03 MH085686-01 Assay Submitter (PI): Beller, Mathias; Max-Planck-Institut fur Biophysikalische Chemie NCGC Assay Overview: Storing lipids as a reservoir for energy or the anabolism of elementary metabolites is a common feature of probably all cells and is conserved from bacteria to humans. The universal cellular lipid storage organelle is the so-called lipid storage droplet (LD). Although ubiquitous, LDs share a simple structure composed of a hydrophobic core that harbors the storage lipids, which is shielded by a droplet-specific phospholipid monolayer to which proteins are attached. […]
# Triacsin C (Sigma-Aldrich T-4540), an inhibitor of long-chain fatty acyl CoA synthetase that blocks synthesis of triglycerides, was used as a positive control for lipid under-storage. […] Fluorescence was detected by excitation of the fluorophores with a 488-nm laser on an Acumen Explorer (TTP Lab Tech). […] Cells were detected using channel 3 (575-640 nm) with 5-um width and 100-um depth filters. The ratio of the number of objects in PMT channel 2 over the number of objects in PMT channel 3 was also calculated. […]
# Potency is read from the fitted curve at half-maximal effect.
row,SMILES,Potency
1,Cc1cc(N2C(=O)C(O)=C(C(=O)c3cc4ccccc4o3)C2c2ccc(Cl)cc2)no1 (stereo unspecified),"inconclusive: 29.1 µM [rising, single point]"
